# Experimental data: PubChem BioAssay AID248 (DTP/NCI, 2004)
# The list does not hold the whole screen: it gathers tests that were run many times, whatever their T/C, doses with no T/C, and many T/C values between a quarter and a half above the control. Further doses and runs are listed elsewhere. T/C gives the treated animals as a percentage of the vehicle group. Some entries give survivors of the animals treated and no T/C: the source holds a T/C of zero for them, seemingly a mark for toxic or unscored doses. Some doses without a T/C left all or most animals alive at the check, yet need not have been tolerated: survival well below the control is almost never listed, so the zero probably covers shortened survival too. Counts of survivors are from the toxicity check (mostly the fifth day) where no day follows; animals may have died later. Schedules are NCI's codes, taken here to give the interval after Q, in days (D) or hours (H), and the number of doses after X. Some entries were tested several times; the results are listed from low to high. Some schedules carry Z or #; the key to these is not given. For survival time, the PubChem record calls one and a half times the control and up active, and a quarter to a half above the control has no call in these data; cut-offs in other NCI protocols can differ.
# Test system: L1210 leukemia ip in BDF1 mice, survival T/C
# Assay: NCI In Vivo Anticancer Drug Screen. Data for tumor model L1210 Leukemia (intraperitoneal) in B6D2F1 (BDF1) mice
# Settings: T/C endpoint: mean survival time, higher T/C = longer survival
# [1] = dose: 400.0 mg/kg/injection, schedule: Q01DX009 (ip), vehicle: Klucel (hydroxypropylcellulose) (HPC)
# [2] = dose: 400.0 mg/kg/injection, schedule: Q01DX009 (ip), vehicle: saline with Tween-80
# [3] = dose: 400.0 mg/kg/injection, schedule: Q01DX001 (ip), vehicle: saline
# [4] = dose: 400.0 mg/kg/injection, schedule: Q04DX003 (ip), vehicle: Klucel (hydroxypropylcellulose) (HPC)
# [5] = dose: 200.0 mg/kg/injection, schedule: Q01DX001 (ip), vehicle: other
# [6] = dose: 400.0 mg/kg/injection, schedule: Q04DX002 (ip), vehicle: Klucel (hydroxypropylcellulose) (HPC)
# [7] = dose: 200.0 mg/kg/injection, schedule: Q04DX003 (ip), vehicle: saline
# [8] = dose: 400.0 mg/kg/injection, schedule: Q04DX003 (ip), vehicle: saline with Tween-80
structure (smiles),measurement,setting,value
Nc1nc(N)c(CCCCc2ccccc2)c(C=O)n1,survivor count,"dose: 200.0 mg/kg/injection, schedule: Q01DX009 (ip), vehicle: Klucel (hydroxypropylcellulose) (HPC)",5 of 6
same,survivor count,[1],1 of 6
Cc1ccccc1NC(=O)N(C)N,survivor count,"dose: 150.0 mg/kg/injection, schedule: Q01DX001 (ip), vehicle: carboxymethylcellulose (CMC)",3 of 6
same,survivor count,"dose: 300.0 mg/kg/injection, schedule: Q01DX001 (ip), vehicle: carboxymethylcellulose (CMC)",1 of 6
O=C1c2ccccc2C(=O)N1CNc1ccc(Oc2ccc(Cl)cc2)cc1,survivor count,[2],5 of 6
Cc1nnc2c3ccccc3ccn12,survivor count,[3],0 of 4
CCCCCCCCCCCCCCSCCO,survivor count,"dose: 400.0 mg/kg/injection, schedule: Q01DX009 (ip), vehicle: carboxymethylcellulose (CMC)",1 of 6
Nc1c(C(=O)O)cc(Br)c2c1C(=O)c1ccccc1C2=O,survivor count,[4],5 of 6
O=C(Nc1ccc([N+](=O)[O-])cc1Cl)SCc1ccccc1,survivor count,[1],2 of 3 and 5 of 6
Nc1ncc(C(=O)O)c(N)n1,survivor count,[5],3 of 6
same,survivor count,"dose: 400.0 mg/kg/injection, schedule: Q01DX001 (ip), vehicle: other",0 of 6
O=C(O)CCC1(CCC(=O)O)OCCO1.[Ag],survivor count,"dose: 75.0 mg/kg/injection, schedule: Q01DX001 (ip), vehicle: other",0 of 6
same,survivor count,"dose: 150.0 mg/kg/injection, schedule: Q01DX001 (ip), vehicle: other",0 of 6
same,survivor count,"dose: 300.0 mg/kg/injection, schedule: Q01DX001 (ip), vehicle: other",2 of 6
COc1cc(OC)c(NC(=O)c2ccc([N+](=O)[O-])s2)cc1Cl,survivor count,"dose: 400.0 mg/kg/injection, schedule: Q01DX005 (ip), vehicle: saline",2 of 4
O=CNC(CSC(c1ccccc1)c1ccccc1)C(=O)O (configuration not stated),survivor count,"dose: 300.0 mg/kg/injection, schedule: Q01DX001 (ip), vehicle: Klucel (hydroxypropylcellulose) (HPC)",3 of 6
NC(=O)/C=C/C(=O)O (tested in a mixture with another compound),survivor count,"dose: 250.0 mg/kg/injection, schedule: Q#A X Z (ip), vehicle: saline",1 of 6
CC(=O)Nc1nc(C=O)cc(=O)[nH]1,survivor count,[5],4 of 4
Cc1cc(C)c(C(=O)O)c(O)c1,survivor count,"dose: 100.0 mg/kg/injection, schedule: Q01DX001 (ip), vehicle: carboxymethylcellulose (CMC)",4 of 4
same,survivor count,"dose: 400.0 mg/kg/injection, schedule: Q01DX001 (ip), vehicle: carboxymethylcellulose (CMC)",3 of 4
O=C(O)c1ccc(N/N=C/C(F)(F)F)cc1,T/C,"dose: 25.0 mg/kg/injection, schedule: Q01DX001 (ip), vehicle: saline",136 % of control
same,survivor count,"dose: 200.0 mg/kg/injection, schedule: Q04DX002 (ip), vehicle: saline",3 of 3
same,survivor count,"dose: 400.0 mg/kg/injection, schedule: Q04DX002 (ip), vehicle: saline",0 of 3 and 0 of 6
C=C1CC(c2ccc(S(=O)(=O)N3CCOCC3)cc2)OC1=O (configuration not stated),survivor count,[6],0 of 3
CCCCCC[Se]CCCCCC,survivor count,"dose: 100.0 mg/kg/injection, schedule: Q01DX009 (ip), vehicle: saline",0 of 6
same,survivor count,"dose: 200.0 mg/kg/injection, schedule: Q01DX009 (ip), vehicle: saline",0 of 6
same,survivor count,[7],1 of 6
same,survivor count,"dose: 400.0 mg/kg/injection, schedule: Q04DX003 (ip), vehicle: saline",0 of 6
Cc1cc[n+](Cc2ccc([N+](=O)[O-])cc2)cc1,survivor count,[7],3 of 6
same,survivor count,[3],0 of 6
c1cc[c]([Pb]([S]c2ccccn2)([c]2ccccc2)[c]2ccccc2)cc1,survivor count,"dose: 6.25 mg/kg/injection, schedule: Q01DX009 (ip), vehicle: Klucel (hydroxypropylcellulose) (HPC)",6 of 6
same,survivor count,"dose: 12.5 mg/kg/injection, schedule: Q01DX009 (ip), vehicle: Klucel (hydroxypropylcellulose) (HPC)",3 of 6
same,survivor count,"dose: 25.0 mg/kg/injection, schedule: Q01DX009 (ip), vehicle: Klucel (hydroxypropylcellulose) (HPC)",1 of 3
same,survivor count,"dose: 50.0 mg/kg/injection, schedule: Q01DX009 (ip), vehicle: Klucel (hydroxypropylcellulose) (HPC)",0 of 3
same,survivor count,"dose: 100.0 mg/kg/injection, schedule: Q01DX009 (ip), vehicle: Klucel (hydroxypropylcellulose) (HPC)",0 of 3
same,survivor count,"dose: 100.0 mg/kg/injection, schedule: Q04DX002 (ip), vehicle: Klucel (hydroxypropylcellulose) (HPC)",2 of 3 and 3 of 3
same,survivor count,"dose: 200.0 mg/kg/injection, schedule: Q04DX002 (ip), vehicle: Klucel (hydroxypropylcellulose) (HPC)",2 of 3
same,survivor count,[6],0 of 3
O=C(CN1CC1)NCc1ccc(CNC(=O)CN2CC2)cc1,T/C,"dose: 3.0 mg/kg/injection, schedule: Q01DX009 (ip), vehicle: carboxymethylcellulose (CMC)",137 % of control
same,T/C,"dose: 11.1 mg/kg/injection, schedule: Q01DX001 (ip), vehicle: carboxymethylcellulose (CMC)",125 % of control
same,T/C,"dose: 12.5 mg/kg/injection, schedule: Q01DX001 (ip), vehicle: carboxymethylcellulose (CMC)",142 % of control
same,T/C,"dose: 16.6 mg/kg/injection, schedule: Q01DX001 (ip), vehicle: carboxymethylcellulose (CMC), evaluated on day 30",129 % of control
same,T/C,"dose: 16.6 mg/kg/injection, schedule: Q01DX001 (ip), vehicle: carboxymethylcellulose (CMC), run until all animals had died",128 % of control
same,T/C,"dose: 25.0 mg/kg/injection, schedule: Q01DX001 (ip), vehicle: carboxymethylcellulose (CMC), evaluated on day 30",129 % of control
same,T/C,"dose: 25.0 mg/kg/injection, schedule: Q01DX001 (ip), vehicle: carboxymethylcellulose (CMC), run until all animals had died",130 and 146 % of control
same,survivor count,"dose: 37.5 mg/kg/injection, schedule: Q01DX009 (ip), vehicle: carboxymethylcellulose (CMC)",6 of 6
same,T/C,"dose: 50.0 mg/kg/injection, schedule: Q01DX001 (ip), vehicle: carboxymethylcellulose (CMC)",142 % of control
same,survivor count,"dose: 50.0 mg/kg/injection, schedule: Q01DX009 (ip), vehicle: carboxymethylcellulose (CMC)",6 of 6
O=C(/C=C/c1ccccc1)N1CCCCC1,survivor count,[6],3 of 3
COC(=O)c1ccccc1C(=O)O,survivor count,[8],1 of 6
Cc1cc(Cl)c(OC(=O)Nc2ccccc2F)cc1C,survivor count,"dose: 200.0 mg/kg/injection, schedule: Q01DX009 (ip), vehicle: saline with Tween-80",6 of 6
same,survivor count,[2],2 of 6
O=C(NC(CS(=O)(=O)O)C(=O)O)OCc1ccccc1 (configuration not stated),survivor count,[4],3 of 6
CCC(=O)OC1(c2ccccc2)CCN(C/C=C/c2cccc3ccccc23)CC1,survivor count,"dose: 400.0 mg/kg/injection, schedule: Q01DX001 (ip), vehicle: gum acacia",0 of 6
N#Cc1nc2c(nc1C#N)CCCC2,survivor count,"dose: 50.0 mg/kg/injection, schedule: Q04DX003 (ip), vehicle: Klucel (hydroxypropylcellulose) (HPC)",6 of 6
same,survivor count,"dose: 100.0 mg/kg/injection, schedule: Q01DX001 (ip), vehicle: Klucel (hydroxypropylcellulose) (HPC)",2 of 6
same,survivor count,"dose: 100.0 mg/kg/injection, schedule: Q04DX003 (ip), vehicle: Klucel (hydroxypropylcellulose) (HPC)",5 of 6
same,survivor count,"dose: 200.0 mg/kg/injection, schedule: Q01DX001 (ip), vehicle: Klucel (hydroxypropylcellulose) (HPC)",0 of 6
same,survivor count,"dose: 400.0 mg/kg/injection, schedule: Q01DX001 (ip), vehicle: Klucel (hydroxypropylcellulose) (HPC)",0 of 6
CC1(C)C2CCC(CC(=O)O)C1C2 (configuration not stated),survivor count,[8],1 of 3
CCN1CCC2CN(C)CCN2C1=S (configuration not stated),survivor count,"dose: 200.0 mg/kg/injection, schedule: Q01DX001 (ip), vehicle: saline",1 of 6
same,survivor count,[3],0 of 6
CN(Cc1cnc2nc(N)nc(N)c2n1)c1ccc(C(=O)NC(CCC(=O)O)C(=O)O)c2ccccc12 (configuration not stated),T/C,"dose: 1.0 mg/kg/injection, schedule: Q01DX009 (ip), vehicle: saline",132 % of control
same,T/C,"dose: 2.0 mg/kg/injection, schedule: Q01DX009 (ip), vehicle: saline",133 % of control
same,T/C,"dose: 16.0 mg/kg/injection, schedule: Q01DX009 (ip), vehicle: saline",135 % of control
same,T/C,"dose: 16.0 mg/kg/injection, schedule: Q04DX003 (ip), vehicle: saline",133 % of control
same,T/C,"dose: 32.0 mg/kg/injection, schedule: Q04DX003 (ip), vehicle: saline",133 % of control
